In patent US8461328B2, “Tricyclic heterocyclic compounds, compositions and methods of use thereof” (Genentech, Inc., priority 2010, dated 2013):
Some of these results come from one statement about several compounds together.

Chains of the proteins cited; added tags and fusions are not shown. Residues count along the entry.
UniProt P23458, 852-1154: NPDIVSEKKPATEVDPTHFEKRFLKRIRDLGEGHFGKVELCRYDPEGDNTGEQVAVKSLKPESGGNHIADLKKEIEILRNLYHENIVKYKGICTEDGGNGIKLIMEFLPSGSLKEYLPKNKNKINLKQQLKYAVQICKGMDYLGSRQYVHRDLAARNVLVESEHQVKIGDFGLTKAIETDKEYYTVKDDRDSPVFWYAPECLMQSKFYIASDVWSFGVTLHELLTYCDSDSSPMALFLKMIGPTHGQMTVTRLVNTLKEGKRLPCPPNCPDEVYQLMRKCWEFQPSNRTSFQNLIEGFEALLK

Molecular target: T1, human JAK1 kinase domain (Homo sapiens, UniProt P23458)
T1 construct: made in house; host or cells: SF9 insect cells (baculovirus)
Experiment: JAK1 inhibition assay (Example B), Caliper LabChip peptide phosphorylation
Assay type: biochemical
Conditions: 1.5 nM JAK1, 25 μM ATP, Morrison tight binding model; read-out: Ki in a JAK1 kinase activity assay (Example B)

Molecule C[C@@H](O)c1nc2cnc3[nH]ccc3c2n1C1CCC(C#N)CC1 (stereo partly drawn) [Example 776, 4-[2-((R)-1-Hydroxy-ethyl)-6H-1,3,5,6-tetraaza-as-indacen-1-yl]-cyclohexanecarbonitrile] has a Ki of less than 500 nM.
N#CC1CCC(n2c(CO)nc3cnc4[nH]ccc4c32)CC1 (centres unmarked) [Example 777, 4-(2-Hydroxymethyl-6H-1,3,5,6-tetraaza-as-indacen-1-yl)-cyclohexanecarbonitrile] gave a Ki of less than 500 nM.
Work on C[C@@H](O)c1nc2cnc3[nH]ccc3c2n1C1CCC(CCS(C)(=O)=O)CC1 (stereo partly drawn) [Example 778, (R)-1-{1-[4-(2-methanesulfonyl-ethyl)-cyclohexyl]-1,6-dihydro-1,3,5,6-tetraaza-as-indacen-2-yl}-ethanol] yielded a Ki of less than 500 nM.
Work on C[C@@H](O)c1nc2cnc3[nH]ccc3c2n1C1CCC(n2cncn2)CC1 (stereo partly drawn) [Example 779, (R)-1-[1-(4-[1,2,4]triazol-1-yl-cyclohexyl)-1,6-dihydro-1,3,5,6-tetraaza-as-indacen-2-yl]-ethanol] yielded a Ki of less than 500 nM.
Molecule C[C@H](O)c1nc2cnc3[nH]ccc3c2n1[C@@H]1CCCN(C(=O)Cn2ccnc2)C1 [Example 781, 1-{(R)-3-[2-((S)-1-Hydroxy-ethyl)-6H-1,3,5,6-tetraaza-as-indacen-1-yl]-piperidin-1-yl}-2-imidazol-1-yl-ethanone] has a Ki of less than 500 nM.
C[C@H](O)c1nc2cnc3[nH]ccc3c2n1[C@@H]1CCCN(C(=O)CC(F)(F)F)C1 [Example 782, 3,3,3-Trifluoro-1-{(R)-3-[2-((S)-1-hydroxy-ethyl)-6H-1,3,5,6-tetraaza-as-indacen-1-yl]-piperidin-1-yl}-propan-1-one] gave a Ki of less than 500 nM.
With C[C@@H](O)c1nc2cnc3[nH]ccc3c2n1[C@@H]1CCCN(C(=O)C2CCOCC2)C1 [Example 783, {(R)-3-[2-((R)-1-Hydroxy-ethyl)-6H-1,3,5,6-tetraaza-as-indacen-1-yl]-piperidin-1-yl}-(tetrahydro-pyran-4-yl)-methanone] the Ki was less than 500 nM.
Work on COCCC(=O)N1CCC[C@@H](n2c([C@@H](C)O)nc3cnc4[nH]ccc4c32)C1 [Example 784, 1-{(R)-3-[2-((R)-1-Hydroxy-ethyl)-6H-1,3,5,6-tetraaza-as-indacen-1-yl]-piperidin-1-yl}-3-methoxy-propan-1-one] yielded a Ki of less than 500 nM.
With C[C@@H](O)c1nc2cnc3[nH]ccc3c2n1[C@@H]1CCCN(C(=O)CC(F)(F)F)C1 [Example 785, 3,3,3-Trifluoro-1-{(R)-3-[2-((R)-1-hydroxy-ethyl)-6H-1,3,5,6-tetraaza-as-indacen-1-yl]-piperidin-1-yl}-propan-1-one] the Ki was less than 500 nM.
In the case of CC(O)c1nc2cnc3[nH]ccc3c2n1C1CCCN(C(=O)C2CCOC2)C1 (centres unmarked) [Example 786, {3-[2-(1-Hydroxy-ethyl)-6H-1,3,5,6-tetraaza-as-indacen-1-yl]-piperidin-1-yl}-(tetrahydro-furan-3-yl)-methanone], the Ki is reported as less than 500 nM.
CC(O)c1nc2cnc3[nH]ccc3c2n1C1CCCN(C(=O)C2CC(=O)N(C)C2)C1 (centres unmarked) [Example 787, 4-{3-[2-(1-Hydroxy-ethyl)-6H-1,3,5,6-tetraaza-as-indacen-1-yl]-piperidine-1-carbonyl}-1-methyl-pyrrolidin-2-one] was tested, and the Ki was less than 500 nM.
In the case of C[C@@H](O)c1nc2cnc3[nH]ccc3c2n1[C@@H]1CCCN(C(=O)C2CCCC2)C1 [Example 788, Cyclopentyl-{(R)-3-[2-((R)-1-hydroxy-ethyl)-6H-1,3,5,6-tetraaza-as-indacen-1-yl]-piperidin-1-yl}-methanone], the Ki is reported as less than 500 nM.
CC(O)c1nc2cnc3[nH]ccc3c2n1C1CCCN(C(=O)CC2CCCO2)C1 (centres unmarked) [Example 789, 1-{3-[2-(1-Hydroxy-ethyl)-6H-1,3,5,6-tetraaza-as-indacen-1-yl]-piperidin-1-yl}-2-(tetrahydro-furan-2-yl)-ethanone] showed a Ki of less than 500 nM.
CC(O)c1nc2cnc3[nH]ccc3c2n1C1CCCN(C(=O)C2CC2(F)F)C1 (centres unmarked) [Example 790, (2,2-Difluoro-cyclopropyl)-{3-[2-(1-hydroxy-ethyl)-6H-1,3,5,6-tetraaza-as-indacen-1-yl]-piperidin-1-yl}-methanone] was tested, and the Ki was less than 500 nM.
